The source of these data is PMC4887895.

B1: syntaxin-13 (protein, UniProt G3V7P1 1-274)
chain: MSYGPLDMYRNPGPSGPQPRDFNSIIQTCSGNIQRISQATAQIKNLMSQLGTKQDSSKLQENLQQFQHSTNQLAKETNELLKELGSLPLPLSASEQRQQKLQKERLMNDFSSALNNFQVVQRKVSEKEKESIARARAGSRLSAEDRQREEQLVSFDSHEEWNQMQSQEEEAAITEQDLELIKERETAIQQLEADILDVNQIFKDLAMMIHDQGDLIDSIEANVESSEVHVERASDQLQRAAYYQKKSRKKMCILVLVLSVIVTVLVVVIWVASK
B2: JIP2 (protein, UniProt G3V9M2 1-835)
chain: MADRAEMFSLSTFHSLSPPGCRPPQDISLEEFDDEDLSEITDDCGLGLSYDSDHCEKDSLSLGRSEQPHPICSFQDDFQEFEMIDDNEEEEDEEEEEEEEEEEDGDGDGRAGGGSGSQELSGESLIPSPSIEESHKLRPTTLHLTTLGAQDSLNNNSNGGFTSAPPSSWQETVLRSPVQEPLKELPAPLLPAEEEHHEVQSLARPGCDCEGNQPPEPPASGGASPSSDPGIEADLRSHSSGGHEGRRSSQELSSPGSDSEEAGGARLGRMISSISETELELSSDSGSSSGRSSHLTNSIEEASSPASEPEPEPEPEPLHEPPRRPAFLPVGQDDTNSEYESGSESEPDLSEDADSPWLLSNLVSRMISEGSSPIRCPGQCLSPPAPRPPEEAASQANPVPQDCPDPEAVAGPHVELVDMDTLCGPPPPAPAAPRLGPAQSGPCLFLSNPTRDTITPLWAPPGRTARPGRSCSAACSEEEEEDEEEDEEDEEDAEDSVIPPGSRTTGSTAPLDASLVYDAVKYTLVVDEHTQLELVSLRRCAGLDNDSEEDSSCEASEEEAGATLLGSDQVPEDASPDSPDLTFSKKFLNVFVNSTSRSSSTESFGLFSCVVNGEEREQTHRAVFRFIPRHPDELELDVDDPVLVEAEEDDFWFRGFNMRTGERGVFPAFYAHAVPGPAKDLLGSKRSPCWVDRFDVQFLGSVEVPCHQGNGILCAAMQKIATARKLTVHLRPPASCDLEISLRGVKLSLSGGGPEFQRCSHFFQMKNISFCGCHPRNSCYFGFITKHPLLSRFACHVFVSQESMRPVARSVGRAFLEYYQEHLAFACPTEDIYLE
B3: JIP1 (protein, UniProt Q9R237 1-708)
chain: MAERESGLSGGAASPPAASPFLGLHIASPPNFRLTHDISLEEFEDEDLSEITDECGISLQCKDTLSLRPPRAGLLSAGSSGSAGSRLQAEMLQMDLIDAASDTPGAEDDEEDDDELAAQRPGVGPSKAESGQEPASRSQGQGQGPGTGSGDTYRPKRPTTLNLFPQVPRSQDTLNNNSLGKKHSWQDRVSRSSSPLKTGEQTPPHEHICLSDELPPQGSPVPTQDRGTSTDSPCRRTAATQMAPPSGPPATAPGGRGHSHRDRIHYQADVRLEATEEIYLTPVQRPPDPAEPTSTFLPPTESRMSVSSDPDPAAYSVTAGRPHPSISEEDEGFDCLSSPEQAEPPGGGWRGSLGEPPPPPRASLSSDTSALSYDSVKYTLVVDEHAQLELVSLRPCFGDYSDESDSATVYDNCASASSPYESAIGEEYEEAPQPRPPTCLSEDSTPDEPDVHFSKKFLNVFMSGRSRSSSAESFGLFSCVINGEEHEQTHRAIFRFVPRHEDELELEVDDPLLVELQAEDYWYEAYNMRTGARGVFPAYYAIEVTKEPEHMAALAKNSDWIDQFRVKFLGSVQVPYHKGNDVLCAAMQKIATTRRLTVHFNPPSSCVLEISVRGVKIGVKADEAQEAKGNKCSHFFQLKNISFCGYHPKNNKYFGFITKHPADHRFACHVFVSEDSTKALAESVGRAFQQFYKQFVEYTCPTEDIYLE

Results are given in words; binding and its absence hold for the method and conditions named. In cells and extracts the contact can be indirect. A yes stands for co-enrichment or nearness to the bait. Other partners may have been found. A no says only that the protein was not detected with the bait.

One experiment has as its target T1, FEZ1 (rat (endogenous in rat brain)) (UniProt P97577).
T1 sequence: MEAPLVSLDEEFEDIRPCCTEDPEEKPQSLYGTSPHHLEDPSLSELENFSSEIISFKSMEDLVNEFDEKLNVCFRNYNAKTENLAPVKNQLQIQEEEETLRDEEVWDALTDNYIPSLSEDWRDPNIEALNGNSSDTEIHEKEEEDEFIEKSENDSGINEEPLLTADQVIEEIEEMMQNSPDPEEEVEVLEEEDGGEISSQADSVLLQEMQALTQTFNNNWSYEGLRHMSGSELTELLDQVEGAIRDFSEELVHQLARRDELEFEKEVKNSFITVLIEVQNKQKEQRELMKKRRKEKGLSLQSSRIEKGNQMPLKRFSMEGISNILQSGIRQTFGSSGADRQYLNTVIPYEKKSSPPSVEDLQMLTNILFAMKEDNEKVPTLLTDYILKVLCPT
As to the kind of experiment: affinity purification with mass spectrometry; FEZ1- or Kinesin-1-containing vesicles immunoisolated from rat brain cortex supernatant S2 in PBS/BSA with anti-FEZ1 or anti-Kinesin-1 antibody overnight at 4 °C and Dynabeads Protein A, washed with PBS plus 0.3% BSA; label-free quantitative mass spectrometry against a control IP, 4 biological replicates.
In the case of “calsyntenin (rat (endogenous in rat brain))”, the binding entry is given as “no binding”.
Still for that read-out and setting: next, Rab5 (rat (endogenous in rat brain)): “no binding”; Rab11 (rat (endogenous in rat brain)): “no binding”.
Same read-out and setting: with “syntabulin (rat (endogenous in rat brain))” the entry was “no binding”; with Rab4 (rat (endogenous in rat brain)), “no binding”.

The next experiment has as its target T1, FEZ1 (rat (endogenous in rat brain)). Described as above. This is another data set of the same source.
Take B1: the binding entry was “no binding”.
On the same count and under the same terms, next, B2: “no binding”; B3: “no binding”.

The target of a further experiment is Kinesin-1 (rat (endogenous in rat brain)). The description is as above.
As for B1, the binding entry is “no binding”.
Regarding B2, the binding entry is given as “no binding”.
The same measure, in the same setting: with B3 the entry was “no binding”.
